Measured values: the supplement of paper PMC11659162
Where “and” joins values, the source holds several entries; their conditions need not be identical. Identical values can stand only once. ± gives the standard deviation of the averaged measurements. The list shows a part of the results. Single values of this set are uncertain.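 The cells are a human neuroglioma line carrying a green fluorescent autophagy reporter.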

Key:
[1] = tested on: H4 GFP-LC3; assay: cell viability (scaled to control) (fraction of control); higher = more viable cells
[2] = tested on: H4 GFP-LC3; assay: ACBP immunofluorescence intensity (scaled to control) (AU (scaled)); higher = more intracellular ACBP/DBI

Structure (SMILES) | cell viability ([1]; 6 h) | cell viability ([1]; 24 h) | ACBP immunofluorescence intensity ([2]; 6 h) | ACBP immunofluorescence intensity ([2]; 24 h)
CCCCCCN(CCCCCC)C(=O)Cc1c(-c2ccc(F)cc2)[nH]c2ccccc12 (5 µM) | 0.94 | 1.06 | 0.994 | 0.967
NCCc1c[nH]cn1 (5 µM) | 0.988 | 1.07 | 0.974 | 0.88
NNC(=O)c1ccncc1 (5 µM) | 0.85 | 0.746 | 0.981 | 0.278
N=C(N)NC(=O)Cc1c(Cl)cccc1Cl (5 µM) | 0.736 | 0.871 | 0.927 | 0.456
C=CCN1CCc2c(cc(O)c(O)c2Cl)C(c2ccccc2)C1 (racemic) (5 µM) | 0.717 | 1.23 | 0.939 | 0.467
O=C(O)c1cc(=O)c2ccccc2[nH]1 (5 µM) | 1.08 | 0.995 | 0.861 | 0.389
O=C(O)c1cc(=O)c2c(Cl)cc(Cl)cc2[nH]1 (5 µM) | 1.13 | 1.25 | 0.848 | 0.719
CSCCC(NC(=O)C(Cc1ccccc1)NC(=O)C(Cc1cnc[nH]1)NC(=O)CNC(=O)C(NC(=O)C(C)NC(=O)C(Cc1c[nH]c2ccccc12)NC(=O)C(CC(C)C)NC(=O)C(CC(N)=O)NC(=O)CN)C(C)O)C(N)=O (stereo not drawn) (5 µM) | 1.12 | 1.23 | 0.95 | 0.824
Nc1ncnc2c1ncn2[C@@H]1O[C@H](COP(=O)(O)CP(=O)(O)OP(=O)(O)O)[C@@H](O)[C@H]1O (5 µM) | 0.98 | 1.29 | 1 | 0.896
CCCN(CCC)CCc1cccc2c1CC(=O)N2 (5 µM) | 0.796 | 1.32 | 0.985 | 0.823
CCCCCCN(CCCCCC)C(=O)Cc1c(-c2ccc(Cl)cc2)[nH]c2ccc(Cl)cc12 (5 µM) | 0.903 | 1.02 | 0.984 | 0.955
C[C@@H](O)CCCCn1c(=O)c2c(ncn2C)n(C)c1=O (racemic) (5 µM) | 0.987 | 0.977 | 0.978 | 0.569
OC1(c2ccc(Cl)cc2)CCN(Cc2c[nH]c3ccccc23)CC1 (5 µM) | 0.656 | 0.897 | 0.933 | 0.481
CC[C@H](C)[C@@H]1NC(=O)[C@H](Cc2ccc(O)cc2)NC(=O)[C@@H](N)CSSC[C@@H](C(=O)N2CCC[C@H]2C(=O)N[C@@H](CC(C)C)C(=O)NCC(N)=O)NC(=O)[C@H](CC(N)=O)NC(=O)[C@H](CCC(N)=O)NC1=O (5 µM) | 1.16 | 0.866 | 0.374 | 0.813
NC[C@@H](O)c1ccc(O)c(O)c1 (5 µM) | 0.66 | 0.673 | 0.887 | 0.475
NCC=CC(=O)O (stereo in doubt) (5 µM) | 0.937 | 1.13 | 0.889 | 0.787
CN(C)CCOC(c1ccccc1)c1ccccc1 (5 µM) | 0.999 | 0.945 | 0.95 | 0.56
COC(=O)[C@@H]1[C@H]2C[C@H]3c4[nH]c5ccccc5c4CCN3C[C@@H]2CC[C@@H]1O (5 µM) | 0.933 | 0.931 | 0.751 | 0.436
C=CCn1c(=O)c2c(nc(-c3ccccc3)n2C)n(C)c1=O (5 µM) | 1.02 | 1.11 | 0.956 | 0.7
O=C(NC1CCN(Cc2ccccc2)CC1)c1ccc(I)cc1 (5 µM) | 0.885 | 1.12 | 0.907 | 0.828
Ic1ccc(N2CCN(Cc3c[nH]c4ncccc34)CC2)cc1 (5 µM) | 0.848 | 1.2 | 0.98 | 0.788

Structure (SMILES) | cell viability ([1]; 6 h) | cell viability ([1]; 24 h) | ACBP immunofluorescence intensity ([2]; 6 h) | ACBP immunofluorescence intensity ([2]; 24 h)
Cn1c(=O)c2[nH]cnc2n(C)c1=O (5 µM) | 1.03 | 1.07 | 0.865 | 0.546
C[N+](C)(C)CCOC(N)=O (5 µM) | 0.992 | 1.32 | 0.931 | 0.69
N[C@@H](Cc1ccc(O)c(O)c1)C(=O)O (5 µM) | 1.07 | 0.884 | 0.566 | 0.585
CC(=O)OCC[N+](C)(C)C (5 µM) | 1.15 and 0.882 | 1.27 and 1.21 | 0.766 and 0.998 | 0.777 and 0.907
CC(CN1c2ccccc2Sc2ccccc21)N(C)C (stereo not drawn) (5 µM) | 1.03 | 0.817 | 0.968 | 0.635
c1ccc(CN2CCC3(CCc4ccccc43)CC2)cc1 (5 µM) | 0.922 | 1.19 | 0.758 | 0.559
O=c1ccn([C@@H]2O[C@H](COP(=O)(O)OP(=O)(O)O)[C@@H](O)[C@H]2O)c(=O)[nH]1 (5 µM) | 0.841 | 1.26 | 0.998 | 0.47
NC1(C(=O)O)CC(C(=O)O)C(C(=O)O)C1 (stereo not drawn) (5 µM) | 1.01 | 1.34 | 0.875 | 0.524
CC(N)(COP(=O)(O)O)C(=O)O (racemic) (5 µM) | 0.875 | 0.998 | 0.998 | 0.877
C[C@]12C[C@H](O)[C@H]3[C@@H](CCC4=CC(=O)CC[C@@]43C)[C@@H]1CC[C@@H]2C(=O)CO (5 µM) | 1.15 | 0.98 | 0.785 | 0.74
CC(C)NCC(O)COc1cccc2[nH]ccc12 (stereo not drawn) (5 µM) | 0.871 | 0.92 | 0.939 | 0.622
CC(C)C[C@H](NC(=O)[C@H](CCCCN)NC(=O)[C@H](CCCNC(=N)N)NC(=O)[C@H](C)NC(=O)[C@H](CO)NC(=O)[C@H](CCCCN)NC(=O)[C@H](CCCNC(=N)N)NC(=O)[C@H](C)NC(=O)CNC(=O)[C@@H](NC(=O)[C@H](Cc1ccccc1)NC(=O)CNC(=O)CNC(=O)[C@@H](N)Cc1ccccc1)[C@@H](C)O)C(=O)N[C@@H](C)C(=O)N[C@@H](CC(N)=O)C(=O)N[C@@H](CCC(N)=O)C(=O)O (5 µM) | 1.11 ± 0.14 | 1.07 ± 0.32 | 0.691 ± 0.16 | 0.799 ± 0.14
NC(=O)CC[C@@H]1NC(=O)[C@H](Cc2ccccc2)NC(=O)[C@H](Cc2ccc(O)cc2)NC(=O)[C@@H](N)CSSC[C@@H](C(=O)N2CCC[C@H]2C(=O)N[C@@H](CCCN=C(N)N)C(=O)NCC(N)=O)NC(=O)[C@H](CC(N)=O)NC1=O (5 µM) | 1.16 | 0.891 | 0.548 | 0.87
C=CC(N)CCC(=O)O (stereo not drawn) (5 µM) | 1.03 | 0.992 | 0.8 | 0.695
COC(=O)[C@H]1[C@H]2C[C@H]3c4[nH]c5ccccc5c4CCN3C[C@@H]2CC[C@@H]1O (5 µM) | 0.751 | 0.915 | 0.923 | 0.488
CCn1ccnc1CC1COc2ccccc2O1 (stereo not drawn) (5 µM) | 0.939 | 1.1 | 0.826 | 0.514
O=C(Nc1cc(Cl)cc(Cl)c1)[C@H]1CCCC[C@H]1C(=O)O (5 µM) | 1.07 | 1.3 | 0.788 | 0.469
CC[C@H](C)[C@H](NC(=O)[C@H](CCCN=C(N)N)NC(=O)[C@H](CCCN=C(N)N)NC(=O)[C@H](CC(C)C)NC(=O)[C@H](Cc1ccccc1)NC(=O)CNC(=O)CNC(=O)[C@@H](N)Cc1ccc(O)cc1)C(=O)N[C@@H](CCCN=C(N)N)C(=O)N1CCC[C@H]1C(=O)O (5 µM) | 0.98 | 0.951 | 0.652 | 0.615
Cn1c(=O)c2nc(C3CCCC3)[nH]c2n(C)c1=O (5 µM) | 1.06 | 1.2 | 1 | 0.883
CCOC(OCC)P(=O)(O)CCCNCc1ccc(Cl)c(Cl)c1 (5 µM) | 0.913 | 1.04 | 0.895 | 0.489
COCCCC/C(=N\OCCN)c1ccc(C(F)(F)F)cc1 (5 µM) | 1.15 | 0.843 | 0.517 | 0.533

Structure (SMILES) | cell viability ([1]; 6 h) | cell viability ([1]; 24 h) | ACBP immunofluorescence intensity ([2]; 6 h) | ACBP immunofluorescence intensity ([2]; 24 h)
c1nc(CC2CCNCC2)c[nH]1 (5 µM) | 1.05 | 1.13 | 0.923 | 0.631
N=C(N)SCCc1c[nH]cn1 (5 µM) | 1.09 | 0.997 | 0.863 | 0.479
CC#C[C@]1(O)CC[C@H]2[C@@H]3CCC4=CC(=O)CCC4=C3[C@@H](c3ccc(N(C)C)cc3)C[C@@]21C (5 µM) | 0.998 | 0.973 | 0.186 | 0.546
NC1(C(=O)O)CCc2cc(C(=O)O)ccc21 (stereo not drawn) (5 µM) | 0.896 | 0.936 | 0.906 | 0.333
O=C(OCCN1CCOCC1)C1(c2ccccc2)CCCCC1 (5 µM) | 1.17 | 1.09 | 0.78 | 0.617
O=C(O)c1ccncc1 (5 µM) | 0.763 | 1.04 | 0.985 | 0.52
COCCNC(=O)COc1ccc(OCCNC[C@H](O)COc2ccccc2)cc1 (5 µM) | 0.821 | 0.854 | 0.958 | 0.796
CCN(CC)CCOCCOC(=O)C1(c2ccccc2)CCCC1 (5 µM) | 1 | 1.21 | 0.947 | 0.845
CC(C)NCC(O)COc1ccccc1-n1cccc1 (stereo not drawn) (5 µM) | 0.85 | 0.767 | 0.947 | 0.703
CCS(=O)(=O)N1CCC[C@@H]2CN3CCc4cc(OC)ccc4[C@@H]3C[C@@H]21 (5 µM) | 0.927 | 1.04 | 0.85 | 0.566
COc1ccccc1N1CCN(CCN(C(=O)C2CCCCC2)c2ccccn2)CC1 (5 µM) | 0.898 | 1.13 | 0.876 | 0.638
NC(N)=NC(N)=Nc1ccccc1 (5 µM) | 0.787 | 0.905 | 0.919 | 0.56
N[C@H](CCC(=O)NCC(=O)O)C(=O)O (5 µM) | 1.13 | 1.13 | 0.829 | 0.397
O=C(CCCN1CCC(O)(c2ccc(Cl)cc2)CC1)c1ccc(F)cc1 (5 µM) | 0.686 | 1.13 | 0.949 | 0.55
CC1CCN(CCCC(=O)c2ccc(F)cc2)CC1 (5 µM) | 0.63 | 0.801 | 0.984 | 0.268
O=C(Nc1cccc(C(=O)Nc2ccc(S(=O)(=O)O)c3cc(S(=O)(=O)O)cc(S(=O)(=O)O)c23)c1)Nc1cccc(C(=O)Nc2ccc(S(=O)(=O)O)c3cc(S(=O)(=O)O)cc(S(=O)(=O)O)c23)c1 (5 µM) | 0.919 | 1.1 | 0.996 | 0.626
C1COC(NC(C2CC2)C2CC2)=N1 (5 µM) | 0.666 | 0.784 | 0.944 | 0.848
COc1cccc(CNc2ccc3nc(-c4ccc(N)cc4)c(OC)n3n2)c1 (5 µM) | 0.845 | 0.891 | 0.987 | 0.92
Clc1ccc2c(c1)CCc1cccnc1C2=C1CCNCC1 (5 µM) | 1.01 | 0.943 | 0.961 | 0.76
O=C(O)C1CCCN(CCC=C(c2ccccc2)c2ccccc2)C1 (stereo not drawn) (5 µM) | 0.967 | 1.09 | 0.905 | 0.77
